Experimental data: PubChem BioAssay AID743454 (Peter MacCallum Cancer Centre, 2014)
In all, the deposit lists about 18,000 reagents; shown is a part drawn at random. 450 of them (2.5%) were called active. 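Single biological run; no consistent viability z cut-off exists, so the class columns, not z-scores, define the calls.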 A number with no mark means an inactive call. Reagent sequences are not shown.

Test: 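Search for knock-downs that restore vorinostat killing in resistant colon cancer cells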 (primary screen)
Cell system: human HCT116-VR colon cancer cells, selected for vorinostat resistance
Reagent: siRNA pool against human genes, 40 nM siRNA pool
Time to read-out: vorinostat for 24 h, read-out about 72 h after transfection
Conditions: vorinostat at 2.5 µM final
Measured: 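Two measures, CellTiter-Fluor viability and luminescent caspase 3/7 activity, each as fold change against same-plate mock wells, mean of duplicates, then screen-wide robust z-score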
Direction: viability robust z-score: higher = more viable cells than screen typical; caspase robust z-score: higher = more caspase 3/7 activity than screen typical
Hit rule: 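Hits are knock-downs in viability class RV1/RV2 or caspase class CA1/CA2, excluding ones that killed cells in the no-drug cell-count arm; hits then retested with single siRNAs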

Which result is listed for PROZ (GeneID 8858)?
viability hit class: no change; caspase hit class: no change; viability robust z-score: 0.29; caspase robust z-score: -0.42

For EHD4 (GeneID 30844), what was measured?
viability hit class: no change; caspase hit class: no change; viability robust z-score: -0.13; caspase robust z-score: 2.22

Which result is listed for SLC25A36 (GeneID 55186)?
viability hit class: no change; caspase hit class: no change; viability robust z-score: -1; caspase robust z-score: 0.06

With PARP4 (GeneID 143), how do the results read?
viability hit class: no change; caspase hit class: no change; viability robust z-score: -0.18; caspase robust z-score: 0.14

With OR51G2 (GeneID 81282), what does the deposit list?
viability hit class: no change; caspase hit class: no change; viability robust z-score: 0.74; caspase robust z-score: 0.73

How did the screen score LILRA3 (GeneID 11026)?
viability hit class: no change; caspase hit class: no change; viability robust z-score: 0.12; caspase robust z-score: 0.31

What did the screen give for ATIC (GeneID 471)?
viability hit class: no change; caspase hit class: no change; viability robust z-score: -0.86; caspase robust z-score: 0.2

Laid out differently: results already given.
{"Gene": "SLC25A36 (GeneID 55186)", "viability hit class": "no change", "caspase hit class": "no change", "viability robust z-score": -1, "caspase robust z-score": 0.06}
{"Gene": "PARP4 (GeneID 143)", "viability hit class": "no change", "caspase hit class": "no change", "viability robust z-score": -0.18, "caspase robust z-score": 0.14}

The results go on.
For PCDH18 (GeneID 54510), what does the deposit list?
viability hit class: no change; caspase hit class: no change; viability robust z-score: -0.7; caspase robust z-score: 4.57

With ZNF557 (GeneID 79230), how do the results read?
viability hit class: no change; caspase hit class: no change; viability robust z-score: -0.14; caspase robust z-score: -0.62

How did the screen score SMPD1 (GeneID 6609)?
viability hit class: no change; caspase hit class: no change; viability robust z-score: -0.47; caspase robust z-score: -0.78

For SHROOM2 (GeneID 357), what was measured?
viability hit class: no change; caspase hit class: no change; viability robust z-score: 0.42; caspase robust z-score: 0.62

With HOMER2 (GeneID 9455), how do the results read?
viability hit class: no change; caspase hit class: no change; viability robust z-score: 1.25; caspase robust z-score: -0.11

What is on record for MMP12 (GeneID 4321)?
viability hit class: no change; caspase hit class: no change; viability robust z-score: 0.52; caspase robust z-score: -0.77

What is on record for DIPK1C (GeneID 125704)?
viability hit class: no change; caspase hit class: no change; viability robust z-score: -0.6; caspase robust z-score: -0.57
